The target in this experiment is CNOT1 (MIF4G and DUF3819 domains; amino acids 1093–1595) (human) (UniProt A5YKK6). The experiment can be described thus: co-expression and co-purification by affinity chromatography; proteins co-expressed in E. coli, complex purified by affinity chromatography as described before; purified proteins separated by 14% SDS/PAGE, Coomassie Brilliant Blue.

Protein sequences, listed by entry. Tags and fused reporters are not part of them. Residues count along the entry.
UniProt A5YKK6, residues 1093-1595: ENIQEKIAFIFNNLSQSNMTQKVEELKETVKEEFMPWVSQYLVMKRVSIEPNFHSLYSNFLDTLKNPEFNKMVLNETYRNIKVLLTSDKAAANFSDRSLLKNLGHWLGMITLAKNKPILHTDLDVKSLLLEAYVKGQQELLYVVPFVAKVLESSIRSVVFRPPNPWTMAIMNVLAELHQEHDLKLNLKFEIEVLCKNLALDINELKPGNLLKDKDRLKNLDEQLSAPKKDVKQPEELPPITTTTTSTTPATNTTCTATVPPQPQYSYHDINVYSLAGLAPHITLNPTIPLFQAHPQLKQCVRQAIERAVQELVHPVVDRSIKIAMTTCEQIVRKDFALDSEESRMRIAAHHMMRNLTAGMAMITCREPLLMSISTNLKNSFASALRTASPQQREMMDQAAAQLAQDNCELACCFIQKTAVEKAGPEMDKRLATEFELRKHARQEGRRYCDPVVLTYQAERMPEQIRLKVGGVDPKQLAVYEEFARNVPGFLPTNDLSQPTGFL

No constants are given. Whether binding was seen depends on the method and setting. Some entries that bind do so weakly or less than the wild type.

With “CNOT9 (ARM domain; amino acids 33–283) (from UniProt Q92600 33-283) (domain or fragment)”, the binding entry is “binds”.

(Values after paper PMC6443996, “1‐Hydroxy‐xanthine derivatives inhibit the human Caf1 nuclease and Caf1‐containing nuclease complexes via Mg^2+‐dependent binding” (FEBS Open Bio, 2019).)
